# Data reported in patent publication US20110319416A1, “Subunit Selective NMDA Receptor Antagonists For The Treatment Of Neurological Conditions” (EMORY UNIVERSITY, priority 2009, published 2011).
# Amino acid sequences for entries named in this document (tags omitted). Residues count along the entry.
# UniProt Q62645, 28-1323: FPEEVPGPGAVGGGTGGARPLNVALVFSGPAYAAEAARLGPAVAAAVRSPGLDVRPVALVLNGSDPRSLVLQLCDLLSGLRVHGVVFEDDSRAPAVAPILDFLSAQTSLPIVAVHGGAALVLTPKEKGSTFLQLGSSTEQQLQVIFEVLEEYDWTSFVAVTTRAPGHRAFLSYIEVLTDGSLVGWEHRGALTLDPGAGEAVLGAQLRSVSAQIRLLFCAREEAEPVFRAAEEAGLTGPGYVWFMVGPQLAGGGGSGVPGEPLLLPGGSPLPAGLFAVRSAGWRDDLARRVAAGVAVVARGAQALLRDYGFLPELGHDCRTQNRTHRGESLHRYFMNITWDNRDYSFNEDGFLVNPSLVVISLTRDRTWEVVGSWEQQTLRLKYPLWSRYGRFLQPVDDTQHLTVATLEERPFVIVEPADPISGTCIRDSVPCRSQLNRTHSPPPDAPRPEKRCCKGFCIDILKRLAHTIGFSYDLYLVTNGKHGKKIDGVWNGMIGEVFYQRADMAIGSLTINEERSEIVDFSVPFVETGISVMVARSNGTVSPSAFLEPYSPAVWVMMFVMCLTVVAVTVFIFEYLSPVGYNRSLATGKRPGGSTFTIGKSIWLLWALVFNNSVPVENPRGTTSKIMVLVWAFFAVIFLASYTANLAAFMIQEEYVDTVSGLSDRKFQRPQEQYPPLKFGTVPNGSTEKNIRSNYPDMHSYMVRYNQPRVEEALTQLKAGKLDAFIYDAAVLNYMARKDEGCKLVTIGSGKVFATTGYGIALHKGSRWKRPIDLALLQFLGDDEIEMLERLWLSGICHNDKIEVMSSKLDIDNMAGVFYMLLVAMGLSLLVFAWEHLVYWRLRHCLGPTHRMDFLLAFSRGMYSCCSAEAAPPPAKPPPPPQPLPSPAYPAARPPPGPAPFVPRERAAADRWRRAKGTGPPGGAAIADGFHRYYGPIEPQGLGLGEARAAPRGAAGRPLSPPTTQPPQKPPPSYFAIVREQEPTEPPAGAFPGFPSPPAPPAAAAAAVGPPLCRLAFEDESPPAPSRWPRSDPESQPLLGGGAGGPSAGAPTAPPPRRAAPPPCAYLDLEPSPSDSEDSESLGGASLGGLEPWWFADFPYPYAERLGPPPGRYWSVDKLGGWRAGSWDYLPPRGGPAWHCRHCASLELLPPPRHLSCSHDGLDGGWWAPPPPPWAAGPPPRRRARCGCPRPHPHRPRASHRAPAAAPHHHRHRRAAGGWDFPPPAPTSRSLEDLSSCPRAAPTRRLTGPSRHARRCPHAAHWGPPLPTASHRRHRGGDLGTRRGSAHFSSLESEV
# For at least one compound, name, drawing or mass did not settle the structure.
# Target: NR1/NR2D (Rattus norvegicus, UniProt Q62645)
# Assay: Ca2+ fluorescence screening assay in NR1/NR2D expressing BHK cells (96 well)
# Assay type: cell-based
# Set-up: expressed in transfected cells; host or cells: BHK-21 cells; NR1 induced by doxycyclin (Tet-On), NR2D constitutive
# Details: 10 μM test compound, 100 μM glutamate/1 mM glycine
structure (smiles),measurement,value
CN1CC[C@@]23CCCC[C@@H]2[C@@H]1Cc1ccc(O)cc13 [dextrorphan],identification in test screen of NR1/NR2D expressing BHK cells,successfully identified
